Measured data: PubChem BioAssay AID652243 (Drosophila RNAi Screening Center, 2013)

Test: 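Fly regulators of androgen-dependent reporter output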 (primary screen)
System: Drosophila S2R+ cells
Knock-down reagent: long dsRNA against Drosophila genes
Timing: 72 h (48 h, then 24 h hormone)
Treatment: synthetic androgen R1881 at 10 nM for 24 h
Read-out: 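Per-well raw luminescence of the androgen-driven firefly reporter and of the Renilla control, two replicates each, without normalisation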
Reading the numbers: firefly reporter light: higher = more light from androgen-responsive reporter; Renilla control light: higher = more constitutive control signal (cell number, transfection)
Call rule: 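Hit when the log firefly-to-Renilla ratio dropped or increased by a fixed fold versus the mean of GFP or LacZ controls across duplicate plates; lowering cut given as 1.5 and as 3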
Calls: active = hit: reporter lowered or raised; inactive = no hit
The deposit covers about 24,000 reagents; below is an unselected part of those that have a named target and a result. Over the whole deposit, 246 (1%) were called active. 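Plates not normalised; calls are printed but the firefly/Renilla ratio behind them is not deposited; fold cut for lowering reported inconsistently.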 Raw values are not corrected between plates. Unmarked entries are inactive. A plus sign joins genes that one reagent is predicted to hit. The record does not give: the amount of reagent.

Gene	DRSC id	firefly reporter light, replicate 1	firefly reporter light, replicate 2	Renilla control light, replicate 1	Renilla control light, replicate 2
Or85a	DRSC16764	1.15e5	1.06e5	2.75e6	1.83e6
CG7320	DRSC10810	2.36e5	1.54e5	2.33e6	1.73e6
CG7320	DRSC26050	3.36e5	3.59e5	5.26e5	5.96e5
CG31207	DRSC21886	5.97e5	8.46e5	4.96e5	4.65e5
l(2)05714	DRSC03118	8.18e5	9.99e5	1.62e6	1.78e6
l(2)05714	DRSC29829	5.47e5	5.23e5	1.16e6	1.59e6
RPA1	DRSC16830	42513	41507	4.67e5	4.33e5
CG7523	DRSC16254	1.48e5	44762	8.93e5	4.67e5
dor	DRSC18765	1.19e5	92081	1.05e6	8.17e5
dor	DRSC27554	2.06e5 (active)	1.82e5	7.71e5	9.78e5
Dph1	DRSC09851	4.82e5	4.36e5	1.00e6	1.22e6
CG15909	DRSC04977	4.44e5	4.43e5	1.35e6	1.71e6
unc-119	DRSC18846	3.45e5	4.11e5	2.47e6	2.00e6
unc-119	DRSC39157	4.01e5	4.81e5	1.15e6	1.31e6
Sirt2	DRSC15714	2.45e5	3.69e5	3.76e6	3.88e6
Sirt2	DRSC26964	4.41e5	3.38e5	7.47e5	5.53e5
CG6937 + btn	DRSC16917	2.08e5	1.62e5	2.43e6	1.76e6
CG30177	DRSC22680	5.22e5	5.86e5	8.21e5	8.33e5
Ance-2	DRSC02539	1.93e5	1.94e5	1.13e6	1.65e6
CG42375 + CG9288	DRSC16468	58029	66155	1.30e5	1.43e5
Gr68a	DRSC10803	2.37e5	2.50e5	2.53e6	2.35e6

Reformatted: entries from further up.
| Gene | DRSC id | firefly reporter light, replicate 1 | firefly reporter light, replicate 2 | Renilla control light, replicate 1 | Renilla control light, replicate 2 |
| --- | --- | --- | --- | --- | --- |
| CG6937 + btn | DRSC16917 | 2.08e5 | 1.62e5 | 2.43e6 | 1.76e6 |
| CG30177 | DRSC22680 | 5.22e5 | 5.86e5 | 8.21e5 | 8.33e5 |
| Ance-2 | DRSC02539 | 1.93e5 | 1.94e5 | 1.13e6 | 1.65e6 |

The listing continues:
Gene	DRSC id	firefly reporter light, replicate 1	firefly reporter light, replicate 2	Renilla control light, replicate 1	Renilla control light, replicate 2
CG13869 + CG11099	DRSC06428	88008	79439	1.25e6	9.40e5
CG13869 + CG11099	DRSC24218	7.69e5	6.26e5	9.54e5	8.52e5
CG12224	DRSC14480	85875	1.42e5	2.03e6	1.94e6
ACOX1	DRSC05941	1.53e6	9.25e5	2.62e6	1.81e6
ACOX1	DRSC24604	8.10e5	6.04e5	8.91e5	9.47e5
CG13563	DRSC22153	6.66e5	5.25e5	8.63e5	7.25e5
CG12691	DRSC17880	2.24e5	2.41e5	3.47e6	2.85e6
asRNA:CR31144 + RpL3	DRSC16834	92938	1.85e5	1.52e6	1.66e6
Es2	DRSC18663	1.02e5	1.22e5	5.42e5	6.02e5
Es2	DRSC27829	2.42e5	1.84e5	6.07e5	8.01e5
CG31612	DRSC03697	7.12e5	7.75e5	1.55e6	1.77e6
CG31612	DRSC03698	2.68e5	2.16e5	2.49e6	1.33e6
Pomp	DRSC03201	5.09e5	1.12e6	9.18e5	1.65e6
Pomp	DRSC27581	2.37e5	1.66e5	3.31e5	5.02e5
Rift	DRSC14330	1.60e5	1.45e5	2.01e6	2.36e6
RpS24	DRSC04414	2.36e5	4.62e5	9.06e5	1.30e6
RpS24	DRSC28412	1.95e5 (active)	1.92e5	7.30e5	6.52e5
CG32022	DRSC09678	1.97e5	1.22e5	2.02e6	1.31e6
Nxt1	DRSC04630	4.91e5	5.62e5	1.77e6	1.77e6
Nxt1	DRSC28865	5.82e5	4.56e5	8.95e5	1.03e6
